Measured values published in publication PMC10039360.
Results are given in words; binding and its absence hold for the method and conditions named. In cells and extracts the contact can be indirect. Some binding calls cover weakened binding; strength is not graded here. Tags and fused reporters may be left off the sequences shown.

Target: T1, myc-LZTFL1 (Leucine Zipper Transcription Factor-like 1) (UniProt Q9NQ48)
T1 sequence: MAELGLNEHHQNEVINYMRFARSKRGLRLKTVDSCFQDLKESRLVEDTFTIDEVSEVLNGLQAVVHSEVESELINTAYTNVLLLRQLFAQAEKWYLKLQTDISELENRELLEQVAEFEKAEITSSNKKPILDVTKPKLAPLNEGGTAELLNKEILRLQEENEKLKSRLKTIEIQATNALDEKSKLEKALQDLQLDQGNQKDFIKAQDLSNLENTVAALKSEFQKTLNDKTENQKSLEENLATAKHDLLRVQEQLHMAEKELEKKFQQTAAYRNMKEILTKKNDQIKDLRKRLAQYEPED
Experiment: co-IP; HEK293T cells transfected with myc-LZTFL1 and Flag-ZNRF1; immunoprecipitated with control IgG or anti-myc antibody, blotted with anti-flag or anti-myc antibody

binding: binds
B1: Flag-ZNRF1 (E3 ubiquitin-protein ligase ZNRF1) (enzyme, UniProt Q8ND25 1-227)
chain: MGGKQSTAARSRGPFPGVSTDDSAVPPPGGAPHFGHYRTGGGAMGLRSRSVSSVAGMGMDPSTAGGVPFGLYTPASRGTGDSERAPGGGGSASDSTYAHGNGYQETGGGHHRDGMLYLGSRASLADALPLHIAPRWFSSHSGFKCPICSKSVASDEMEMHFIMCLSKPRLSYNDDVLTKDAGECVICLEELLQGDTIARLPCLCIYHKSCIDSWFEVNRSCPEHPAD
